We go through two molecules from publication PMC7457778.

Results are given in words; binding and its absence hold for the method and conditions named. In cells and extracts the contact can be indirect. Some results given as binding are weak or reduced against the parent protein; the word gives no strength. Tags and fused reporters may be left off the sequences shown.

In assay [1] the target is T1, HA-tagged TRIM59 (tripartite motif-containing 59) (human) (UniProt Q8IWR1).
T1 sequence: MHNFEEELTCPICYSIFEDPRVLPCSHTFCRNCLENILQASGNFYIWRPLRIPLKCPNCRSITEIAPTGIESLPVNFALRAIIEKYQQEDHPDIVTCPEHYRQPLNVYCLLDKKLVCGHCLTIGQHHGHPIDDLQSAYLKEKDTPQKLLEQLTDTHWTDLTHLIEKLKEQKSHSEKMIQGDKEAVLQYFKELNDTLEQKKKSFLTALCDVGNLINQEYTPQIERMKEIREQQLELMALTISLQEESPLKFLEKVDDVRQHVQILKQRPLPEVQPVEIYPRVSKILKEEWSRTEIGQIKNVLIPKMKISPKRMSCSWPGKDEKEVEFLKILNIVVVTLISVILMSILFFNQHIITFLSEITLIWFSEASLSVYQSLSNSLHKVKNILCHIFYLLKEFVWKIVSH
The assay is described as follows: co-IP; HEK-293 cells co-transfected with HA-TRIM59 and Myc-ABHD5; lysates precipitated with anti-HA or anti-Myc agarose beads, blotted for the other tag; purified IgG as negative control.

Assay [2] addresses T2, Myc-tagged ABHD5 (abhydrolase domain containing 5) (UniProt Q8WTS1).
T2 sequence: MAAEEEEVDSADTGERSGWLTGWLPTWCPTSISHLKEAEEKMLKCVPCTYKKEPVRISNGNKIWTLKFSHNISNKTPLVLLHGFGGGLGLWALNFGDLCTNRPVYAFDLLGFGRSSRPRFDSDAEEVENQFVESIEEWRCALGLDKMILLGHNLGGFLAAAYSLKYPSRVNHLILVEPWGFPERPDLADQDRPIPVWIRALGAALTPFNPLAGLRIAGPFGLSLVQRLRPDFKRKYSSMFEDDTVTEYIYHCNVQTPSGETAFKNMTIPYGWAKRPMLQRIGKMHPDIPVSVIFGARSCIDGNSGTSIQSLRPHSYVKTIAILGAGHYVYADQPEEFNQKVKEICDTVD
Put plainly: proximity ligation; THP-1 macrophages transiently transfected with HA-TRIM59 and Myc-ABHD5; rabbit anti-HA and mouse anti-Myc, Duolink In Situ Red Kit, fixed and permeabilised cells.

Assay [3] addresses T2, Myc-tagged ABHD5 (abhydrolase domain containing 5). Put plainly: co-IP; HEK-293 cells co-transfected with HA-TRIM59 and Myc-ABHD5; lysates precipitated with anti-HA or anti-Myc agarose beads, blotted for the other tag; purified IgG as negative control.

B1: Myc-tagged ABHD5 (abhydrolase domain containing 5) (protein, UniProt Q8WTS1 1-349)
chain: MAAEEEEVDSADTGERSGWLTGWLPTWCPTSISHLKEAEEKMLKCVPCTYKKEPVRISNGNKIWTLKFSHNISNKTPLVLLHGFGGGLGLWALNFGDLCTNRPVYAFDLLGFGRSSRPRFDSDAEEVENQFVESIEEWRCALGLDKMILLGHNLGGFLAAAYSLKYPSRVNHLILVEPWGFPERPDLADQDRPIPVWIRALGAALTPFNPLAGLRIAGPFGLSLVQRLRPDFKRKYSSMFEDDTVTEYIYHCNVQTPSGETAFKNMTIPYGWAKRPMLQRIGKMHPDIPVSVIFGARSCIDGNSGTSIQSLRPHSYVKTIAILGAGHYVYADQPEEFNQKVKEICDTVD
Turning to B1, in assay [1], the binding entry is “binds”.

B2: HA-tagged TRIM59 (tripartite motif-containing 59) (protein, UniProt Q8IWR1 1-403)
chain: MHNFEEELTCPICYSIFEDPRVLPCSHTFCRNCLENILQASGNFYIWRPLRIPLKCPNCRSITEIAPTGIESLPVNFALRAIIEKYQQEDHPDIVTCPEHYRQPLNVYCLLDKKLVCGHCLTIGQHHGHPIDDLQSAYLKEKDTPQKLLEQLTDTHWTDLTHLIEKLKEQKSHSEKMIQGDKEAVLQYFKELNDTLEQKKKSFLTALCDVGNLINQEYTPQIERMKEIREQQLELMALTISLQEESPLKFLEKVDDVRQHVQILKQRPLPEVQPVEIYPRVSKILKEEWSRTEIGQIKNVLIPKMKISPKRMSCSWPGKDEKEVEFLKILNIVVVTLISVILMSILFFNQHIITFLSEITLIWFSEASLSVYQSLSNSLHKVKNILCHIFYLLKEFVWKIVSH
Regarding B2, the binding result in assay [2] and in assay [3] was “binds” in each case.
